B1: DVD731 (bispecific antibody)
VH: QVQLQQPGSELVRPGASVKLSCKASGYTFTSYWMHWVKQRPGQGLEWIGNIYPGTVNTNYDEKFKNKATLTVDTSSSTAYMLLSSLTSEDSAVYYCTRDYYGGGLNYWGQGTTLTVSSASTKGPSVFPLAPEVQLVESGGGLVQPGGSLKLSCAASGFTFNNYYMSWVRQTPERRLEWVAYISSSGGSTYYSDSVRGRFTISRDTARNTLYLQMTSLKSEDTAMYYCARHFGDYSYFDYWGQGTTLTVSS
VL: SIVMTQTPKFLLVSAGDRVTITCKASQSVSNDVAWFQQKPGQSPKLLIYYASNRYAGVPDRFTGSGFGTDFTFTISTVQAEDLAVYFCHQDYSSPRTFGGGTKLEIKRTVAAPSVFIFPPDIQMTQSPASLSASVGETVTITCRASENFYSYLAWYQQKQGKSPQLLVYNAKTLAEGVPSRFSGSGSGTQFSLKINSLQPEDFGTYYCQHHYDIPLTFGAGTKLELKR
B2: DVD722 (antibody)
VH: KIQLVQSGPELKKPGETVKISCKASGYTFTNYGMNWVKQAPGKGLKWMGWININTGEPTYAEEFKGRFAFSLETSATTAFLQINNLKNEDTATYLCARDSYSGGFDYWGQGTIVTVSSASTKGPKIQLVQSGPELKKPGETVKISCKASGYTFTNYGMNWVKQAPGKGLKWMGWININTGEPTYAEEFKGRFAFSLETSATTAFLQINNLKNEDTATYLCARDSYSGGFDYWGQGTIVTVSS
VL: DIVMTQSPSSLSVSAGEKVTLSCKSSQSLLISGDQKNYLAWYQQKPGQPPKLLIYGASTRDSGVPDRFTGSGSGADFTLTISSVQAEDLAVYYCQNDHSFPPTFGAGTKLELKRTVAAPDIVMTQSPSSLSVSAGEKVTLSCKSSQSLLISGDQKNYLAWYQQKPGQPPKLLIYGASTRDSGVPDRFTGSGSGADFTLTISSVQAEDLAVYYCQNDHSFPPTFGAGTKLELKR
B3: DVD719 (antibody)
VH: EVQLVESGGGLVQPGGSLKLSCAASGFTFNNYYMSWVRQTPERRLEWVAYISSSGGSTYYSDSVRGRFTISRDTARNTLYLQMTSLKSEDTAMYYCARHFGDYSYFDYWGQGTTLTVSSASTKGPSVFPLAPEVQLVESGGGLVQPGGSLKLSCAASGFTFNNYYMSWVRQTPERRLEWVAYISSSGGSTYYSDSVRGRFTISRDTARNTLYLQMTSLKSEDTAMYYCARHFGDYSYFDYWGQGTTLTVSS
VL: DIQMTQSPASLSASVGETVTITCRASENFYSYLAWYQQKQGKSPQLLVYNAKTLAEGVPSRFSGSGSGTQFSLKINSLQPEDFGTYYCQHHYDIPLTFGAGTKLELKRTVAAPSVFIFPPDIQMTQSPASLSASVGETVTITCRASENFYSYLAWYQQKQGKSPQLLVYNAKTLAEGVPSRFSGSGSGTQFSLKINSLQPEDFGTYYCQHHYDIPLTFGAGTKLELKR
B4: DVD720 (antibody)
VH: EVQLVESGGGLVQPGGSLKLSCAASGFTFNNYYMSWVRQTPERRLEWVAYISSSGGSTYYSDSVRGRFTISRDTARNTLYLQMTSLKSEDTAMYYCARHFGDYSYFDYWGQGTTLTVSSASTKGPEVQLVESGGGLVQPGGSLKLSCAASGFTFNNYYMSWVRQTPERRLEWVAYISSSGGSTYYSDSVRGRFTISRDTARNTLYLQMTSLKSEDTAMYYCARHFGDYSYFDYWGQGTTLTVSS
VL: DIQMTQSPASLSASVGETVTITCRASENFYSYLAWYQQKQGKSPQLLVYNAKTLAEGVPSRFSGSGSGTQFSLKINSLQPEDFGTYYCQHHYDIPLTFGAGTKLELKRTVAAPDIQMTQSPASLSASVGETVTITCRASENFYSYLAWYQQKQGKSPQLLVYNAKTLAEGVPSRFSGSGSGTQFSLKINSLQPEDFGTYYCQHHYDIPLTFGAGTKLELKR
B5: DVD723 (bispecific antibody)
VH: EVQLVESGGGLVQPGGSLKLSCAASGFTFNNYYMSWVRQTPERRLEWVAYISSSGGSTYYSDSVRGRFTISRDTARNTLYLQMTSLKSEDTAMYYCARHFGDYSYFDYWGQGTTLTVSSASTKGPSVFPLAPKIQLVQSGPELKKPGETVKISCKASGYTFTNYGMNWVKQAPGKGLKWMGWININTGEPTYAEEFKGRFAFSLETSATTAFLQINNLKNEDTATYLCARDSYSGGFDYWGQGTIVTVSS
VL: DIQMTQSPASLSASVGETVTITCRASENFYSYLAWYQQKQGKSPQLLVYNAKTLAEGVPSRFSGSGSGTQFSLKINSLQPEDFGTYYCQHHYDIPLTFGAGTKLELKRTVAAPSVFIFPPDIVMTQSPSSLSVSAGEKVTLSCKSSQSLLISGDQKNYLAWYQQKPGQPPKLLIYGASTRDSGVPDRFTGSGSGADFTLTISSVQAEDLAVYYCQNDHSFPPTFGAGTKLELKR
B6: DVD727 (bispecific antibody)
VH: EVQLVESGGGLVQPGGSLKLSCAASGFTFNNYYMSWVRQTPERRLEWVAYISSSGGSTYYSDSVRGRFTISRDTARNTLYLQMTSLKSEDTAMYYCARHFGDYSYFDYWGQGTTLTVSSASTKGPQVQLQQPGSELVRPGASVKLSCKASGYTFTSYWMHWVKQRPGQGLEWIGNIYPGTVNTNYDEKFKNKATLTVDTSSSTAYMLLSSLTSEDSAVYYCTRDYYGGGLNYWGQGTTLTVSS
VL: DIQMTQSPASLSASVGETVTITCRASENFYSYLAWYQQKQGKSPQLLVYNAKTLAEGVPSRFSGSGSGTQFSLKINSLQPEDFGTYYCQHHYDIPLTFGAGTKLELKRTVAAPSIVMTQTPKFLLVSAGDRVTITCKASQSVSNDVAWFQQKPGQSPKLLIYYASNRYAGVPDRFTGSGFGTDFTFTISTVQAEDLAVYFCHQDYSSPRTFGGGTKLEIKR
B7: DVD730 (bispecific antibody)
VH: QVQLQQPGSELVRPGASVKLSCKASGYTFTSYWMHWVKQRPGQGLEWIGNIYPGTVNTNYDEKFKNKATLTVDTSSSTAYMLLSSLTSEDSAVYYCTRDYYGGGLNYWGQGTTLTVSSASTKGPEVQLVESGGGLVQPGGSLKLSCAASGFTFNNYYMSWVRQTPERRLEWVAYISSSGGSTYYSDSVRGRFTISRDTARNTLYLQMTSLKSEDTAMYYCARHFGDYSYFDYWGQGTTLTVSS
VL: SIVMTQTPKFLLVSAGDRVTITCKASQSVSNDVAWFQQKPGQSPKLLIYYASNRYAGVPDRFTGSGFGTDFTFTISTVQAEDLAVYFCHQDYSSPRTFGGGTKLEIKRTVAAPDIQMTQSPASLSASVGETVTITCRASENFYSYLAWYQQKQGKSPQLLVYNAKTLAEGVPSRFSGSGSGTQFSLKINSLQPEDFGTYYCQHHYDIPLTFGAGTKLELKR
B8: DVD726 (bispecific antibody)
VH: KIQLVQSGPELKKPGETVKISCKASGYTFTNYGMNWVKQAPGKGLKWMGWININTGEPTYAEEFKGRFAFSLETSATTAFLQINNLKNEDTATYLCARDSYSGGFDYWGQGTIVTVSSASTKGPEVQLVESGGGLVQPGGSLKLSCAASGFTFNNYYMSWVRQTPERRLEWVAYISSSGGSTYYSDSVRGRFTISRDTARNTLYLQMTSLKSEDTAMYYCARHFGDYSYFDYWGQGTTLTVSS
VL: DIVMTQSPSSLSVSAGEKVTLSCKSSQSLLISGDQKNYLAWYQQKPGQPPKLLIYGASTRDSGVPDRFTGSGSGADFTLTISSVQAEDLAVYYCQNDHSFPPTFGAGTKLELKRTVAAPDIQMTQSPASLSASVGETVTITCRASENFYSYLAWYQQKQGKSPQLLVYNAKTLAEGVPSRFSGSGSGTQFSLKINSLQPEDFGTYYCQHHYDIPLTFGAGTKLELKR
B9: DVD721 (antibody)
VH: KIQLVQSGPELKKPGETVKISCKASGYTFTNYGMNWVKQAPGKGLKWMGWININTGEPTYAEEFKGRFAFSLETSATTAFLQINNLKNEDTATYLCARDSYSGGFDYWGQGTIVTVSSASTKGPSVFPLAPKIQLVQSGPELKKPGETVKISCKASGYTFTNYGMNWVKQAPGKGLKWMGWININTGEPTYAEEFKGRFAFSLETSATTAFLQINNLKNEDTATYLCARDSYSGGFDYWGQGTIVTVSS
VL: DIVMTQSPSSLSVSAGEKVTLSCKSSQSLLISGDQKNYLAWYQQKPGQPPKLLIYGASTRDSGVPDRFTGSGSGADFTLTISSVQAEDLAVYYCQNDHSFPPTFGAGTKLELKRTVAAPSVFIFPPDIVMTQSPSSLSVSAGEKVTLSCKSSQSLLISGDQKNYLAWYQQKPGQPPKLLIYGASTRDSGVPDRFTGSGSGADFTLTISSVQAEDLAVYYCQNDHSFPPTFGAGTKLELKR

Protein sequences, listed by entry. Tags and fused reporters are not part of them. Residues count along the entry.
UniProt P80188, residues 21-198: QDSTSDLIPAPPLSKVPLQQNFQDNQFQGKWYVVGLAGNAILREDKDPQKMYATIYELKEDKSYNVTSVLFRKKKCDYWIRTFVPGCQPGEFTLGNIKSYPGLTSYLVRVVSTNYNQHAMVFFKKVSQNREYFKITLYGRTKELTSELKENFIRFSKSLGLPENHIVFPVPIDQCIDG

Results are given in words; binding and its absence hold for the method and conditions named. Some results given as binding are weak or reduced against the parent protein; the word gives no strength.

The assay has as its target neutrophil gelatinase associated lipocalin (NGAL) (UniProt P80188). Nature of the assay: [..] sandwich immunoassay.
Regarding B1, the binding entry is listed as “binds”.
As for B2, the binding entry is “binds”.
As to B3, the binding result is recorded as “binds”.
Regarding B4, the binding result is recorded as “binds”.
Under B5 stands “binds”; under B6, “binds”; under B7, “binds”.
The entry for B8 is “binds”; for B9 it is “binds”.

For the origin of these results see patent US20110008766A1.
